Experimental data as given in publication PMC9418147, “Identification and structure-based drug design of cell-active inhibitors of interleukin 17A at a novel C-terminal site” (Scientific Reports, 2022).
These are yes or no findings as the source states them, for the method shown. Some binding calls cover weakened binding; strength is not graded here.

Amino acid sequences for entries named in this document (tags omitted). A change or cut given only in a name is not applied to a line headed by its entry. Chains listed by the source or under a name are the forms on record and can include a tag or linker. Residues count along the entry.
UniProt Q96F46, residues 33-320: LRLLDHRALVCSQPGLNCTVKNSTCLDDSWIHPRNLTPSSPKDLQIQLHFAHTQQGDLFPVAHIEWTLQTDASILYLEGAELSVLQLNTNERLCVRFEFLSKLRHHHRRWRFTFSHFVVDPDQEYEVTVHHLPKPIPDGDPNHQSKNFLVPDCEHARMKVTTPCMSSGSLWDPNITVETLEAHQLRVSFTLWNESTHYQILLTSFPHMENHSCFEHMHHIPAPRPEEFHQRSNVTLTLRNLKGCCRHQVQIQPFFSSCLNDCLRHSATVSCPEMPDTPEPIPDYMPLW
biotinylated IL17A (R&D systems) (Q16552, residues 24-155): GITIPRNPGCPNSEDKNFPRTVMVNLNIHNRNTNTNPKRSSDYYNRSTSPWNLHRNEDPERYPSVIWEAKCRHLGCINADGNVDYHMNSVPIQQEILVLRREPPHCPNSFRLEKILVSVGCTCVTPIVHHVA
IL17A (34–148)C129S (Q16552, form named): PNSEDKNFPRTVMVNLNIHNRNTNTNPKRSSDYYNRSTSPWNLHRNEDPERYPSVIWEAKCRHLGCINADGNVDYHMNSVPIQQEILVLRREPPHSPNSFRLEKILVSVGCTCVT

Experiments:
IL17RA-Fc (R&D Systems) = IL17RA-Fc (R&D Systems) (UniProt Q96F46); assay: AlphaScreen or HTRF; AlphaLISA; 1 nM biotinylated IL17A and 1 nM IL17RA-Fc; protein A acceptor beads, streptavidin donor beads; 100 mM Tris, 0.01% Tween-20, 0.1% BSA, pH 8.0; room temperature; both purified
[1] = molecular target: Fc tag IL17RA (Sino Biological) (UniProt Q96F46); assay: SPR; Fc tag IL17RA captured on immobilized anti-Fc surface; IL17A injected at 80 µL/min, contact 180 s, dissociation 1200 s; regeneration 10 mM Glycine pH 1.5; both purified

binding (IL17RA-Fc (R&D Systems))	binding [1]	Substance
binds	–	biotinylated IL17A (R&D systems) (from UniProt Q16552 24-155) (ligand)
–	no binding	IL17A (34–148)C129S (from UniProt Q16552 34-148) (ligand)
